Measurements: PMC5807400
These are yes or no findings as the source states them, for the method shown. Binding seen in cells or lysates may run through a third protein. Here binding means that the protein was enriched with, or labelled near, the bait; the list need not be complete. For some assays here: Tags and fused reporters may be left off the sequences shown.

Amino acid sequences for entries named in this document (tags omitted). Residues count along the entry.
UniProt Q658Y4: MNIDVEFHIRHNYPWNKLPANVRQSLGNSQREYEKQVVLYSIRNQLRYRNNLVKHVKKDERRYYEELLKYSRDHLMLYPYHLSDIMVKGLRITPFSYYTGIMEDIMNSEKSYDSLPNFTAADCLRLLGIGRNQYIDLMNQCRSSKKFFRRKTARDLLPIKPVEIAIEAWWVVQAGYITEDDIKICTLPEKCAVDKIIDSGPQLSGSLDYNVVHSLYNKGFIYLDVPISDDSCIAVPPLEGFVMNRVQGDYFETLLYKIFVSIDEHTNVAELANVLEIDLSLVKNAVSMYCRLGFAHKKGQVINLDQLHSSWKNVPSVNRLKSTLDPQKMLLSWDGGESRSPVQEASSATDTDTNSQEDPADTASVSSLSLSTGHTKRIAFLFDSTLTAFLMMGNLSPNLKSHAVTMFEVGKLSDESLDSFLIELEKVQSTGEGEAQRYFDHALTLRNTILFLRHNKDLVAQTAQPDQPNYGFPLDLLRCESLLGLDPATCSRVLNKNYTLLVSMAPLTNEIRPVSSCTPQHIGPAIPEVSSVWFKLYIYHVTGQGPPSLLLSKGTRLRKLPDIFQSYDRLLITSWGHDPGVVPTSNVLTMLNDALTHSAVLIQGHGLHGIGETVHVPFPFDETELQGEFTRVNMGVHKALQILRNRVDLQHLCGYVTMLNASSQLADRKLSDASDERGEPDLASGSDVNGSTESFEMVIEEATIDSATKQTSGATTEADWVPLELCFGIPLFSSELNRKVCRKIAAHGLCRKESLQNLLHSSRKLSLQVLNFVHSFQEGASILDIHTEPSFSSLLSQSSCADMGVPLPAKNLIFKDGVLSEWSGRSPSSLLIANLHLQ
UniProt P20340: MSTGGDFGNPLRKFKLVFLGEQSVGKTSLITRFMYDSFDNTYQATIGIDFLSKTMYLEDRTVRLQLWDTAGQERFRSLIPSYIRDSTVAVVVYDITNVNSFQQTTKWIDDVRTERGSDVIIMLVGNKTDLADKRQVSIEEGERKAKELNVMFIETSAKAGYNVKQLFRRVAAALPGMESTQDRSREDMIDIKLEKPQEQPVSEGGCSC
UniProt P11717, residues 41-2491: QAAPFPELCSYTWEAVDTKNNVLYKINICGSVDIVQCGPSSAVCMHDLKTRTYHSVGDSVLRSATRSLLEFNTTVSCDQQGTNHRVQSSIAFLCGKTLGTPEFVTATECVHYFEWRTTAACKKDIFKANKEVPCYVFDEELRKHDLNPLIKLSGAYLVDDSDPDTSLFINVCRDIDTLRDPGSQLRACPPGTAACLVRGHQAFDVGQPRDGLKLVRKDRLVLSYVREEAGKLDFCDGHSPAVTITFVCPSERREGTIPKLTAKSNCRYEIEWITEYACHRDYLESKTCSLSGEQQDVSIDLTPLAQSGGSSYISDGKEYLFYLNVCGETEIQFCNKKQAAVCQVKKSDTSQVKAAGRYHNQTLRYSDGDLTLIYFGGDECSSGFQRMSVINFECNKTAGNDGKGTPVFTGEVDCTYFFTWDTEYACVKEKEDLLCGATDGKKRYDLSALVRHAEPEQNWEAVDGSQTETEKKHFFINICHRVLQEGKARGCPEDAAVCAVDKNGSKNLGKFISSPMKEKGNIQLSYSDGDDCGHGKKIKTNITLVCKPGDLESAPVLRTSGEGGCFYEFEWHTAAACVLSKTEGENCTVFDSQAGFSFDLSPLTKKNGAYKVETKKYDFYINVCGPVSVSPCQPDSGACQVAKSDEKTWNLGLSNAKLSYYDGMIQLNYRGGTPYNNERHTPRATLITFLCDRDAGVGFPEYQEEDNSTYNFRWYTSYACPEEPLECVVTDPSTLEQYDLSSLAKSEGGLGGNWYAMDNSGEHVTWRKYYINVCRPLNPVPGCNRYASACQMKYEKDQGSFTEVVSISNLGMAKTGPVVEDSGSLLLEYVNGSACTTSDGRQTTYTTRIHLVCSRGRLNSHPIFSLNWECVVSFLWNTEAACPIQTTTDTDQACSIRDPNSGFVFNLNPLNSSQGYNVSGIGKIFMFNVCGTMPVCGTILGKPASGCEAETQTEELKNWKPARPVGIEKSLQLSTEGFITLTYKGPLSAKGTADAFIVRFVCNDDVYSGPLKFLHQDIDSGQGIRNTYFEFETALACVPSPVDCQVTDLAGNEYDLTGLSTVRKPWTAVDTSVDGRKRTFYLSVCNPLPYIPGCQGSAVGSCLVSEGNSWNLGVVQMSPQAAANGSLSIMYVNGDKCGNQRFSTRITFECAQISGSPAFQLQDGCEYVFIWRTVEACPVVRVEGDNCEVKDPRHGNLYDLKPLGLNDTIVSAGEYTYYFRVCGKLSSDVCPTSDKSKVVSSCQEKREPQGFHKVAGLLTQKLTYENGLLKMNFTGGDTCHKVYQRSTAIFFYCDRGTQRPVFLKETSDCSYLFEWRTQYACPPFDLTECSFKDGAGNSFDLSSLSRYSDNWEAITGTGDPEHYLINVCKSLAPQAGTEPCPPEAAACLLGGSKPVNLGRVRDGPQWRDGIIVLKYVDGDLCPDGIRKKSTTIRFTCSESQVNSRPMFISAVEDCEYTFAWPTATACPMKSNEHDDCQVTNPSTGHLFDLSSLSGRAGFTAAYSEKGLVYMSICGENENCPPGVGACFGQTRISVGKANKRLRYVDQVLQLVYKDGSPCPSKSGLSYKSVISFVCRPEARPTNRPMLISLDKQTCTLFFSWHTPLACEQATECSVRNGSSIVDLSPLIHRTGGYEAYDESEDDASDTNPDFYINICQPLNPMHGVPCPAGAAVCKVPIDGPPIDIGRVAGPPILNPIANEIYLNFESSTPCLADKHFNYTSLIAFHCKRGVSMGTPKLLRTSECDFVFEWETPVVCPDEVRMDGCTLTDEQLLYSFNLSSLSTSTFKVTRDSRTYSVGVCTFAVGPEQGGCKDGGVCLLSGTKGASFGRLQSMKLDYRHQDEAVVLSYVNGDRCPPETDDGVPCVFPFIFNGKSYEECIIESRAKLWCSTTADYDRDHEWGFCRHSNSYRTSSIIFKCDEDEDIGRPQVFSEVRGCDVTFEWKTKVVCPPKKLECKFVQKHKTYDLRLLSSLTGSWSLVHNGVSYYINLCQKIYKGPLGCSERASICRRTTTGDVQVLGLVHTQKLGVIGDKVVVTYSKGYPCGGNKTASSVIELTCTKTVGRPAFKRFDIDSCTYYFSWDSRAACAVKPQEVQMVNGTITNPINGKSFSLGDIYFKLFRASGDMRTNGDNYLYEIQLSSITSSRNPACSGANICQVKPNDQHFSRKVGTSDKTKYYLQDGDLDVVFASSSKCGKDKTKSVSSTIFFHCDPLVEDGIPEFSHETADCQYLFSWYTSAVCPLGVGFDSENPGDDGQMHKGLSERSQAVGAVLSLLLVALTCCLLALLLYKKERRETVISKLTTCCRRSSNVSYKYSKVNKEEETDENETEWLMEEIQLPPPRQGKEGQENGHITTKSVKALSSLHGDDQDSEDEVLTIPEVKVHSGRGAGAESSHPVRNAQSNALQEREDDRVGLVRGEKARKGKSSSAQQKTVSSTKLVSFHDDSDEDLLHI

Experiments:
[1] = biological target: T1, C17orf75 (human (endogenous in HeLa and RPE)) (UniProt Q9HAS0); assay: affinity purification with mass spectrometry; native immunoprecipitation with anti-C17orf75 from lysates of wild-type, WDR11-disrupted and FAM91A1-disrupted HeLa cells; PBS with 1% Triton, 4 °C; mass spectrometry
T1 sequence: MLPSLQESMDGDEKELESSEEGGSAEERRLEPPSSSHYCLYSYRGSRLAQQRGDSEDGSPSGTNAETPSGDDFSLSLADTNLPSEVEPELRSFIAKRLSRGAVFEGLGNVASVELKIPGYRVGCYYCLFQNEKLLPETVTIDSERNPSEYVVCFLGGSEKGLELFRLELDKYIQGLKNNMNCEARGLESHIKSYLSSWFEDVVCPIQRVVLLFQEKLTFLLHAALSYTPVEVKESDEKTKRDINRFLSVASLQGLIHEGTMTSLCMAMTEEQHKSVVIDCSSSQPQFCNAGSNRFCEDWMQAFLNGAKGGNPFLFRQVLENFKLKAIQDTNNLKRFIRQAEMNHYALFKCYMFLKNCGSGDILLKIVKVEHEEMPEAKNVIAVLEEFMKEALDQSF

[2] = biological target: T2, WDR11 (human (endogenous in HeLa and RPE)) (UniProt Q9BZH6); assay: affinity purification with mass spectrometry; native immunoprecipitation with anti-WDR11 from extracts of wild-type HeLa cells, WDR11-knockout cells as control; PBS with 1% Triton, 4 °C; protein A Sepharose; co-precipitating proteins identified by mass spectrometry
T2 sequence: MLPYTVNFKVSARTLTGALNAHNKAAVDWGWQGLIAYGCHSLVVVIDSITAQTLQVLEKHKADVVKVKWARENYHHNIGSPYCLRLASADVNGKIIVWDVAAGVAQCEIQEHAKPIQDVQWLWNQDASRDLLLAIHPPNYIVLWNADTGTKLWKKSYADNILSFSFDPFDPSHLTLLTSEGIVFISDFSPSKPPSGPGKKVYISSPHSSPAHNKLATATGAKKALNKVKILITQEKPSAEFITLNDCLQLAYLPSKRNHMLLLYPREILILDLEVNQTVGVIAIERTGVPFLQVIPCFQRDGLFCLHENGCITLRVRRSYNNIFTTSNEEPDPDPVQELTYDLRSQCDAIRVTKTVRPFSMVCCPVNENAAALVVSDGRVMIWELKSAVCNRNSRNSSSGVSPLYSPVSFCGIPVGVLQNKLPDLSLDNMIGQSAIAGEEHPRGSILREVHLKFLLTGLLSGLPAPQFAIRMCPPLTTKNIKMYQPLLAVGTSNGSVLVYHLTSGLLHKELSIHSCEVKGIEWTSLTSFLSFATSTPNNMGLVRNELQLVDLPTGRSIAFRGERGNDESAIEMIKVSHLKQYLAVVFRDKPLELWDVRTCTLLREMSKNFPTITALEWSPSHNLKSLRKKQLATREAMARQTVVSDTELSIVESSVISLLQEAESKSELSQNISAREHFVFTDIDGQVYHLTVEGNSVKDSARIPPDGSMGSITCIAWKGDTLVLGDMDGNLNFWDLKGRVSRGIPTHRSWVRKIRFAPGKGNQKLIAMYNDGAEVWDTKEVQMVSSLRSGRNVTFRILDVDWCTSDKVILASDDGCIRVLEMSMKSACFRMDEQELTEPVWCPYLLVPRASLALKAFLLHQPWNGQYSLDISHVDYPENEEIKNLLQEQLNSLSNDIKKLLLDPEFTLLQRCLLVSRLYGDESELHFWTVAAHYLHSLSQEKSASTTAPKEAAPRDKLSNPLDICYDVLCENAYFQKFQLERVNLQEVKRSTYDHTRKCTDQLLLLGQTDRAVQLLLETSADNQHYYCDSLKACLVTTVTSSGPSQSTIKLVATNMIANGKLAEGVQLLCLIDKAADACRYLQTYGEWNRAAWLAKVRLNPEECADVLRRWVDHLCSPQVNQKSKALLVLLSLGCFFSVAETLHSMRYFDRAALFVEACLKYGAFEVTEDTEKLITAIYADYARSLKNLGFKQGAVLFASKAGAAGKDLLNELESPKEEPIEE

[3] = biological target: T3, BirA*-tagged C17orf75 (human) (UniProt Q9HAS0); assay: proximity labelling; BioID: RPE cells stably expressing BirA*-tagged WDR11, FAM91A1 or C17orf75, 50 µM biotin for 24 h; lysis in RIPA buffer; biotinylated proteins captured on streptavidin agarose; label-free mass spectrometry against BirA* only and GFP-BirA* controls, four replicates
T3 sequence: T1 sequence

[4] = biological target: T4, BirA*-tagged WDR11 (human) (UniProt Q9BZH6); assay: as above
T4 sequence: T2 sequence

[5] = biological target: BirA*-tagged FAM91A1 (human) (UniProt Q658Y4); assay: as above

For FAM91A1 (from UniProt Q658Y4 1-838), the binding [1] was “binds”, the binding [2] was “binds” and the binding [3] was “binds”. For the same molecule, the binding [4] was “binds”.

Rab6A (from UniProt P20340 1-208) was tested, and the binding [4] was “binds”.

For “cation-independent mannose 6-phosphate receptor (from UniProt P11717 41-2491)”, the binding [3] was “binds”, the binding [5] was “binds” and the binding [4] was “binds”.

B1: C17orf75 (protein, UniProt Q9HAS0 1-396)
chain: T1 sequence
For B1, the binding [2] was “binds”, the binding [5] was “binds” and the binding [4] was “binds”.

B2: WDR11 (protein, UniProt Q9BZH6 1-1224)
chain: T2 sequence
In the case of B2, the binding [1] is reported as “binds”, the binding [3] is reported as “binds” and the binding [5] is reported as “binds”.
